Results are given in words; binding and its absence hold for the method and conditions named. In cells and extracts the contact can be indirect. Some entries that bind do so weakly or less than the wild type. Sequences can lack the tags named with a protein.

Binding data for one molecule are collected here from publication PMC12848067.

The target of this assay is T1, Ring Finger Protein 182 (RNF182), endogenous in rat NRK-49F cells (rat (endogenous in NRK-49F)) (UniProt D3ZBM4).
T1 sequence: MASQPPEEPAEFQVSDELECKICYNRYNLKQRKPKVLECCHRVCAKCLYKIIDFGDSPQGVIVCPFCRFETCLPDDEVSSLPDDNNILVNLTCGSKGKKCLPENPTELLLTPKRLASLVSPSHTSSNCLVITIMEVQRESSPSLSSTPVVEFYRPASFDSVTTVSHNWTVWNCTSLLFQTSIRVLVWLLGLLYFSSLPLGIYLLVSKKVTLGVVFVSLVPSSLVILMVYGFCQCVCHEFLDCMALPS
Briefly: co-IP; endogenous proteins; lysates (50 mM Tris-HCl pH 7.4, 150 mM NaCl, 1 mM EDTA, 1% NP-40 or Triton X-100) immunoprecipitated with anti-RNF182 or control IgG, Protein A/G magnetic beads, 4 °C, Western blot for RNF182 and MFN2; basal cells, and cells treated with vehicle, TGF-β1 or ….

B1: Mitofusin 2 (MFN2), endogenous in rat NRK-49F cells (protein, UniProt Q8R500 1-757)
chain: MSLLFSRCNSIVTVKKDKRHMAEVNASPLKHFVTAKKKINGIFEQLGAYIQESAGFLEDTHRNTELDPVTTEEQVLDVKGYLSKVRGISEVLARRHMKVAFFGRTSNGKSTVINAMLWDKVLPSGIGHTTNCFLRVGGTDGHEAFLLTEGSEEKKSVKTVNQLAHALHQDEQLHAGSLVSVMWPNSKCPLLKDGLVLMDSPGIDVTTELDSWIDKFCLDADVFVLVANSESTLMQTEKQFFHKVSERLSRPNIFILNNRWDASASEPEYMEEVRRQHMERCTSFLVDELGVVDRAQAGDRIFFVSAKEVLSARVQKAQGMPEGGGALAEGFQVRMFEFQNFERRFEECISQSAVKTKFEQHTVRAKQIAEAVRLIMDSLHIAAQEQRVYCLEMREERQDRLRFIDKQLELLAQDYKLRIKQMTEEVERQVSTAMAEEIRRLSVLVDEYQMDFHPSPVVLKVYKNELHRHIEEGLGRNMSDRCSTAIASSLQTMQQDMIDGLKPLLPVSVRNQIDMLVPRQCFSLSYDLNCDKLCADFQEDIEFHFSLGWTMLVNRFLGPKNSRRALLGYNDQVQRPLPLTPANPSMPPLPQGSLTQEELMVSMVTGLASLTSRTSMGILVVGGVVWKAVGWRLIALSFGLYGLLYVYERLTWTTRAKERAFKRQFVEYASEKLQLIISYTGSNCSHQVQQELSGTFAHLCQQVDITRDNLEQEIAAMNKKVEALDSLQSKAKLLRNKAGWLDSELNMFIHQYLQPSR
B1: the binding entry was “binds”.
